Primary screen of a compound library

Chains of the proteins cited; added tags and fusions are not shown.
UniProt E9BF75, entry or part of it: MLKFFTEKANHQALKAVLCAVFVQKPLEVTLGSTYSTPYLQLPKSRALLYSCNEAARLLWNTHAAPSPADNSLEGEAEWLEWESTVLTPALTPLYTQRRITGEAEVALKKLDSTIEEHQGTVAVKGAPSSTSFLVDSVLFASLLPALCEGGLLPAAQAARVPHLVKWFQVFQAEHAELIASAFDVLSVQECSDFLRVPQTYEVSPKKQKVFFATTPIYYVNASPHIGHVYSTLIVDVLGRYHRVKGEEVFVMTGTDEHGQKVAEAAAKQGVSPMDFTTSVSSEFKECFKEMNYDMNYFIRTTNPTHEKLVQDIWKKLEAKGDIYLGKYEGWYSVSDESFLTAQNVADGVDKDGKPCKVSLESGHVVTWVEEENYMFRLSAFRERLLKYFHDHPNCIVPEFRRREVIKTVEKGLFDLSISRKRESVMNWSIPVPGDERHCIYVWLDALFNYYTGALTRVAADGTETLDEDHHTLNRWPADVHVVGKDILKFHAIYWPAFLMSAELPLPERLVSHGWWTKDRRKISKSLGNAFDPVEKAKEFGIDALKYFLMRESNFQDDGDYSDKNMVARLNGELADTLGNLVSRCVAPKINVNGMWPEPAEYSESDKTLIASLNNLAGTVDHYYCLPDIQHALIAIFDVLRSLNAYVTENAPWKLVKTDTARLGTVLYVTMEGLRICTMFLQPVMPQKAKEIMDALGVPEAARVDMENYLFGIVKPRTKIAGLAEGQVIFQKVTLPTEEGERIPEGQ

LdMetRS: 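Primary screen of methionyl-tRNA synthetase; the read-out is not stated. Target: Methionyl-tRNA synthetase (putative), Leishmania donovani (UniProt E9BF75). The test concentration is not given. Values are per cent inhibition. Size under these conditions: about 68,000 compounds, about 24 of them at 50% or above in at least one test.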
Mtb heat-shock: 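Assay on Mycobacterium tuberculosis, filed only as a heat shock assay from Cornell; the read-out is not stated. The concentration is filed as 10 mM, unlikely as a test dose, so the dose is not known. Direction is inferred from retests: higher values go with stronger inhibition. About 69,000 compounds were tested under these conditions; 1.4% (about 930) showed 50% or more at least once.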

Results are percentages, as filed.
How 0% and 100% were set is not recorded. Most values in the screen are low, and negative values occur.
Compounds were drawn at random from those tested, without regard to their results.
A dash means the value is not listed here; it may have been measured.

| # | SMILES | LdMetRS | Mtb heat-shock |
|---|---|---|---|
| 1 | `CN(C)C(=O)N1CCC2(CCCN(CCOc3ccccc3)C2)C1.O=C(O)C(F)(F)F` (stereo not shown) | - | -6.162 |
| 2 | `Cc1nc(CN(C)C2CCN(CCc3cnn(C)c3)C2)no1` (stereo not shown) | 3.179 | -18.24 |
| 3 | `CS(=O)(=O)N(Cc1ccon1)c1ccc(F)cc1` | 4.8 | 0.6198 |
| 4 | `Cc1cnc(C)c(Oc2ccc(Cl)c(CN3CCCC3)c2Cl)n1` | 25.62 | -2.68 |
| 5 | `Cc1nc(C)n(C2CCCN(C(=O)c3csnn3)C2)n1` (stereo not shown) | 6.536 | -3.145 |
| 6 | `O=C(NCCNc1ncccn1)N1CCN(C2CCCC2)CC1` | 15.64 | -4.06 |
| 7 | `O=C(O)C(F)(F)F.c1cnc(N2CCC3(CN(CC4CCOC4)C3)C2)nc1` (stereo not shown) | - | -21.03 |
| 8 | `O=C(O)C(F)(F)F.O=C(O)C(F)(F)F.[H][C@@]12COC[C@]1(COc1ccccn1)CN(C1CCOCC1)C2` | - | -7.98 |
| 9 | `Cc1ccc(C)c(CN2CCOC(c3noc(C)n3)C2)c1` (stereo not shown) | 6.091 | -7.94 |
| 10 | `COC(=O)NCC(=O)NC(c1ccc(Cl)cc1)C(F)(F)F` (stereo not shown) | 11.87 | -4.172 |
| 11 | `Cc1ccc(CN2CCc3onc(C(=O)N4CCCC4)c3C2)o1` | 6.593 | - |
| 12 | `CCn1cnc2c(c(Br)nn2C)c1=O` | 0.6211 | -4.584 |
| 13 | `CN(C)CC1CN(Cc2ccc3c(c2)OCO3)Cc2nccn2C1.O=C(O)C(F)(F)F.O=C(O)C(F)(F)F` (stereo not shown) | - | -9.427 |
| 14 | `Cc1ccccc1C(C)NC(=O)CSCC#N` (stereo not shown) | 11.43 | -10.49 |
| 15 | `CCNC(=O)[C@@H]1C[C@H](N)CN1c1cc(C(F)(F)F)nc(N2CCCC2)n1` | 11.78 | -94.29 |
| 16 | `Cc1occc1C(=O)NCC1OCCc2cn(C)nc21` (stereo not shown) | 13.74 | - |
| 17 | `Cc1cc(C2CCCN2Cc2nc3c(cnn3C)c(=O)[nH]2)on1` (stereo not shown) | 19.55 | -9.851 |
| 18 | `CC(CC(F)(F)F)NCc1ccccc1-n1ccnc1` (stereo not shown) | 17.33 | -8.475 |
| 19 | `CCc1c(C)nc(C)nc1N1C[C@@H](CN(CC)CCO)[C@@H](CO)C1` | 2.235 | -36.56 |
| 20 | `Cc1nc(C2CCCN2Cc2ccc(S(=O)(=O)N(C)C)o2)no1` (stereo not shown) | 17.04 | -8.382 |
| 21 | `CC1=C(C(=O)NCc2cccnc2-n2cnc3ccccc32)OCCO1` | 11.54 | 7.142 |
| 22 | `CC(=O)NCC(=O)N1Cc2nccn2CC(CN(C)C(C)C)C1` (stereo not shown) | 18.1 | - |
| 23 | `Cc1cnn(C2CN(CC(O)COCc3ccc4c(c3)OCO4)C2)c1` (stereo not shown) | 4.692 | -24.71 |
| 24 | `[H][C@@]12CS(=O)(=O)C[C@]1([H])N(C(=O)c1ccco1)CCN2S(C)(=O)=O` | - | -16.04 |
| 25 | `CCC(=O)N1CCc2nc3cc(OC)c(OC)cc3c(=O)n2CC1` | 15.41 | -16.29 |
| 26 | `Cc1csc(C2CCCCN2C(=O)CN(C)C2CC2)n1` (stereo not shown) | 11.81 | -5.359 |
| 27 | `CCc1ccc2nc(C)cc(C(=O)NC3CCNC3=O)c2c1` (stereo not shown) | 25.68 | -116.1 |
| 28 | `O=C(O)C(F)(F)F.O=C(O)C(F)(F)F.[H][C@@]12OCCC[C@]1([H])N(Cc1ccc(C)o1)C[C@@H]2N1CCOCC1` | - | -21.18 |
| 29 | `COCC(C)NC(=O)c1nnn(-c2ccc(OC)cc2)n1` (stereo not shown) | 9.42 | -11.49 |
| 30 | `CN1CCN(CC2CC2)C(=O)c2cnc(N3CCOCC3)nc21` | 14.81 | -8.781 |
| 31 | `CCC(=O)N1CCCCC1c1nc(O)c2c(n1)CN(C(=O)C1CC1)CC2` (stereo not shown) | 14.95 | -6.123 |
| 32 | `Cn1cnc(S(=O)(=O)N2CCCc3cc(F)cc(F)c32)c1Cl` | -2.122 | 3.114 |
| 33 | `O=S(=O)(Cc1cc(-c2ccccc2)no1)CC1CCCO1` (stereo not shown) | 12.15 | 5.012 |
| 34 | `CC1CCN(S(=O)(=O)N2C[C@H](c3ccccc3)[C@@H](N)C2)CC1` | 9.375 | 12.63 |
| 35 | `CCO[C@@H]1CC[C@H]2[C@H]1OCCN2C(=O)CC1=CCCCC1` | 9.89 | - |
| 36 | `CSCCC(=O)N1CCCC(c2nccn2Cc2ccncc2)C1` (stereo not shown) | 8.511 | -11.64 |
| 37 | `COC[C@]12COC[C@H]1CN(Cc1cc(OC)cc(OC)c1)C2` | 11.78 | - |
| 38 | `CC(C)c1noc(CN(C)C(=O)C2COc3ccccc3C2)n1` (stereo not shown) | 9.365 | -15.66 |
| 39 | `COc1cccc(COCC(=O)N2CCCC(c3nncn3C)C2)c1` (stereo not shown) | 11.76 | 4.171 |
| 40 | `Cc1nc2c(C)cccc2cc1C(=O)N1CCC2(CC1)NCCNC2=O` | 15.09 | -15.56 |
| 41 | `Cc1ccccc1C(C)N(C)Cc1nc2c(cnn2C)c(=O)[nH]1` (stereo not shown) | 14.29 | -10.61 |
| 42 | `C[C@@H](NC(=O)c1ccc(Cl)cc1)c1onc(-c2cccnc2)c1C(=O)O.Cl` | - | -4.844 |
| 43 | `CNS(=O)(=O)Cc1ccc(CNC(=O)c2cccc(C)n2)cc1` | 9.312 | -6.444 |
| 44 | `CC(C)Nc1ncnc2c1CCN(C(=O)Cc1cccs1)CC2` | 10.67 | -26.56 |
| 45 | `CCc1nc(CCNC(=O)Nc2cccc(C(=O)NC)c2C)cs1` | -0.5305 | -15.94 |
| 46 | `CC(OCC1CC1)C(=O)N1CCCN(Cc2cscn2)CC1` (stereo not shown) | 12.63 | 8.126 |

Source: ChEMBL document CHEMBL3988442, “University of Dundee, Small-Polar-MMV Screening Library” (2021).